Assay results from PMC13568704.
These are yes or no findings as the source states them, for the method shown. Binding seen in cells or lysates may run through a third protein. Some results given as binding are weak or reduced against the parent protein; the word gives no strength. For part of these data: Sequences can lack the tags named with a protein.

Protein sequences, listed by entry. Tags and fused reporters are not part of them. Residues count along the entry.
UniProt P11021, residues 19-654: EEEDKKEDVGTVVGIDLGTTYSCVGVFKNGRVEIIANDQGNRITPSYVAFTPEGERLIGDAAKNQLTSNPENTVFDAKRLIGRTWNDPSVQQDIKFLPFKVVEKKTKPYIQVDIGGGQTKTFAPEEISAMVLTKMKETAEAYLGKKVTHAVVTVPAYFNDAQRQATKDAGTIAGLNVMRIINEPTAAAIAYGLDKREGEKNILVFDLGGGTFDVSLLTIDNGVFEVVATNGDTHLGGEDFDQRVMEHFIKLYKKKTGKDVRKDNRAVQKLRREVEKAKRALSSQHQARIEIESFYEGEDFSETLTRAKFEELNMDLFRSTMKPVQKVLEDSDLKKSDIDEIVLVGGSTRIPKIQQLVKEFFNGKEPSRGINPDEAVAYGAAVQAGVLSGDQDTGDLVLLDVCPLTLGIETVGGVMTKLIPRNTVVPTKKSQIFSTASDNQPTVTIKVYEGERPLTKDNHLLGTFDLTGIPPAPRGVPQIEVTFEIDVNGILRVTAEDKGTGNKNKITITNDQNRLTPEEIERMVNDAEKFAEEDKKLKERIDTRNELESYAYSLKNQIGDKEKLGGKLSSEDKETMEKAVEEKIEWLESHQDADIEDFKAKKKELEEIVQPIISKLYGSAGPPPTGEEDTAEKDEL
UniProt P20163, residues 18-657: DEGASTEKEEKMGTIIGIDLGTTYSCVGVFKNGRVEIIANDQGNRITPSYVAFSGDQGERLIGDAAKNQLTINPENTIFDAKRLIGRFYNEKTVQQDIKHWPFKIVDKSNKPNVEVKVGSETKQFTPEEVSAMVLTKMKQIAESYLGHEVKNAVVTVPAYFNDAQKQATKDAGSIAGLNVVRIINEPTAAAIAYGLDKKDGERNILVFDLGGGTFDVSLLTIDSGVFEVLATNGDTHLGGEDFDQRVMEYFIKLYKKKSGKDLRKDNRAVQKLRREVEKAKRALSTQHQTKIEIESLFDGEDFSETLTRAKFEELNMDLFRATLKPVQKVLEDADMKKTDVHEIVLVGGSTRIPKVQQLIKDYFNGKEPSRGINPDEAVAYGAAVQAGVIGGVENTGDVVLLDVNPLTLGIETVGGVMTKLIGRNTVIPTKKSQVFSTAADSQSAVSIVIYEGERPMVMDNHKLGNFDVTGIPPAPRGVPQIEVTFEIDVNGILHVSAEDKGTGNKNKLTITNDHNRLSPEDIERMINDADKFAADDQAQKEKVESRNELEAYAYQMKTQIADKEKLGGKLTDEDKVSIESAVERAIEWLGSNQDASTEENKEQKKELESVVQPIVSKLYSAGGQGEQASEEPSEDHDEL
UniProt Q9Y282: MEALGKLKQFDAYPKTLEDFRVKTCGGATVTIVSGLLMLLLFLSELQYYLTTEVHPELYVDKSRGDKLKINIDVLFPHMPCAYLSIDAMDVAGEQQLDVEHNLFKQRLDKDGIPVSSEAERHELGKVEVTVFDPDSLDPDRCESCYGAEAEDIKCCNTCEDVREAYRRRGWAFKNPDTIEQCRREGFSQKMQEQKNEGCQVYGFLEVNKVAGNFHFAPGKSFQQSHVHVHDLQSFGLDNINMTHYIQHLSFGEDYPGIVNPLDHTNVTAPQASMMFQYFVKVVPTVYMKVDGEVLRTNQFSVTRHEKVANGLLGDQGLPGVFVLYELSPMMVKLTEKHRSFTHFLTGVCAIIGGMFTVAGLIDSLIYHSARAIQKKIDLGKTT

What was measured:
[1] = biological target: human BiP (human) (UniProt P11021); test: co-IP; human ERGIC2 or ERGIC3 with human BiP (S4B Fig); tags and precipitating antibody not given
[2] = biological target: HSP-4::Myc (C. elegans) (UniProt P20163); test: co-IP; HEK293T; HSP-4::Myc, UNC-9::GFP and Flag::ERGI-2 or Flag::ERGI-3 expressed together (Fig 6G, 6H); precipitating antibody not given

Question: For “human ERGIC3 (from UniProt Q9Y282 1-383)”, which binding [1] is on record?
Answer: binds

B1: human ERGIC2 (protein, UniProt Q96RQ1 1-377)
chain: MRRLNRKKTLSLVKELDAFPKVPESYVETSASGGTVSLIAFTTMALLTIMEFSVYQDTWMKYEYEVDKDFSSKLRINIDITVAMKCQYVGADVLDLAETMVASADGLVYEPTVFDLSPQQKEWQRMLQLIQSRLQEEHSLQDVIFKSAFKSTSTALPPREDDSSQSPNACRIHGHLYVNKVAGNFHITVGKAIPHPRGHAHLAALVNHESYNFSHRIDHLSFGELVPAIINPLDGTEKIAIDHNQMFQYFITVVPTKLHTYKISADTHQFSVTERERIINHAAGSHGVSGIFMKYDLSSLMVTVTEEHMPFWQFFVRLCGIVGGIFSTTGMLHGIGKFIVEIICCRFRLGSYKPVNSVPFEDGHTDNHLPLLENNTH
Question: For B1, which binding [1] is on record?
Answer: binds

B2: UNC-9::GFP (protein, UniProt O01393 1-386)
chain: MSMLLYYFASAVKSIQFHVDDDIIDKLNYYYTTAIITVFAILVSAKQYVGFPIQCWVPATFTEPMEQYTENYCWVQNTYFLPLHDYIPHNYAERENRQIGYYQWVPFVLALEALLFYVPTIVWRLLSWQSGIHVQSLVQMACDSRLLDLESRNRALQTIATNVEEALHVKHQVMSGNRLKLLNLIICTRSSGAAVTFLYISVKILYTVNIVGQIFLLNTFLGNRSKWYGLQVLNDLMNGREWEESGHFPRVTLCDFEVKVLGNVHRHTVQCVLMINMFNEKIFLFLWFWYFLLAGATLCSLFYWIYISVVPSRQLNFVGKYLTGIEGYKMVDSQSLRRFVFHFLRQDGVFLLRMVATHAGELPCYELAKTLWNNYCDNKEGKMHDV
Question: How did the binding [2] turn out when B2 was run?
Answer: binds
